# Patent US11513125B2, “Microvesicle histone H2AX as a biomarker for genotoxic stress” (Pioma Inc., priority 2013, dated 2022)
# At least one compound was matched to its structure with a doubt left.
# How the values were obtained:
# [1] = system: U87 brain cancer cells; test: Western blot of γH2AX and H2AX in microvesicles shed from TMZ-treated U87 bioreactor cultures; type: cell-based; conditions: for abundance of γH2AX protein in microvesicles derived from the U87 cells: TMZ added to culture media (100 then 300 μM on successive days)
# [2] = system: U87 cells; test: Western blot of γH2AX and H2AX in subcellular fractions of TMZ-treated U87 monolayer cultures; type: cell-based; conditions: FIG. 3A, 50 μM and 100 μM TMZ, fractions EB1-EB4
smiles,measurement,setting,value
Cn1nnc2c(C(N)=O)ncn2c1=O [temozolomide],γH2AX band intensity in microvesicles,"[1]; FIG. 2A, 2, 4, 6 and 24 h microvesicles on day 3 following addition of 300 uM TMZ",uniformly intense
same,abundance of H2AX protein in microvesicles derived from the U87 cells,"[1]; FIG. 2B, same blot reprobed with antibody to unphosphorylated H2AX",increased abundance
same,abundance of γH2AX protein in microvesicles derived from the U87 cells,[1],increased abundance
same,abundance of γH2AX protein in microvesicles derived from the U87 cells,[1]; listed as TMZ,more abundant
same,γH2AX protein in subcellular fractions of U87 whole cells,[2],began to accumulate only in the nucleus
